Structures can show the parent of a compound that is named as a salt. The list shows a part of the results. Single values are uncertain here, since repeats match poorly.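 Wells held roughly 40 S. mansoni schistosomula, imaged in bright field over time against wells given 0.1% DMSO. The paper defines hits as drugs with a Mahalanobis distance of at least 2.47, three standard deviations above the DMSO control mean. Degeneracy is the proportion of worms classified as opaque.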

The experiment relates to Schistosoma mansoni schistosomula. The experiment is described as follows: degeneracy (percent of somules classified as degenerate/opaque); higher = more parasite degeneration/death; extreme values may be limits of the assay. The following applies: 10 µM; 72 h.
For the compound `COc1ccc(NS(=O)(=O)c2ccc(N)cc2)nn1` [Sulfamethoxypyridazine], the degeneracy stood at 17.2%.

In turn, `CCC[C@H](N[C@@H](C)C(=O)N1[C@H](C(=O)O)C[C@@H]2CCCC[C@@H]21)C(=O)OCC` [Perindopril Erbumine] displayed a degeneracy of 10%. With `N=C(N)NC(=N)N1CCOCC1` [Moroxydine Hydrochloride] the figure was 3.7%; with `CC(=O)Oc1cccc2c1C(=O)c1c(OC(C)=O)cc(C(=O)O)cc1C2=O` [Diacerin], 2.27%; with `C=C1C[C@H]2[C@@H]3C=C(C)C4=CC(=O)CC[C@]4(C)[C@H]3CC[C@]2(C)[C@@]1(OC(C)=O)C(C)=O` [Melengestrol Acetate], 31%. On to `CCN(CC)CCc1nc(-c2ccccc2)no1` [Oxolamine Citrate], for which the degeneracy was determined as 15.9%. Compound `CC(C)NC[C@@H](O)COc1cccc2ccccc12` [Dexpropranolol Hydrochloride] gave a degeneracy of 17.1%. `CCc1cn([C@H]2C[C@H](O)[C@@H](CO)O2)c(=O)[nH]c1=O` [Edoxudine] had a degeneracy of 8.16%. With `O=S(=O)(O)NC1CCCCC1` [Cyclamic Acid] the figure was 6.67%; with `CN(C)[C@@H]1C(O)=C(C(=O)NCN2CCCC2)C(=O)[C@@]2(O)C(O)=C3C(=O)c4c(O)cccc4[C@@](C)(O)[C@H]3C[C@@H]12` [Rolitetracycline], 3.23%. For `CC(NCCC(c1ccccc1)c1ccccc1)c1ccccc1` (centres undefined) [Fendiline Hydrochloride], the degeneracy came out at 100%. Take `C[C@H](CCC(=O)O)[C@H]1CC[C@H]2[C@@H]3[C@H](O)C[C@@H]4C[C@H](O)CC[C@]4(C)[C@H]3CC[C@]12C` [Chenodiol]: the degeneracy is 19.2%.

Take `NCC(O)CC(=O)O` (centres undefined) [Aminohydroxybutyric Acid]: the degeneracy worked out at 5.13%. Turning to `CC(=O)OCC(CCn1cnc2cnc(N)nc21)COC(C)=O` [Famciclovir], the degeneracy was 8.11%. With `COc1c2occc2c(OC)c2c(=O)cc(C)oc12` [Khellin] the figure was 5.56%; with `O=c1oc2ccccc2c(O)c1Cc1c(O)c2ccccc2oc1=O` [Dicumarol], 10%; with `COc1ccc(C2CNC(=O)C2)cc1OC1CCCC1` (centres undefined) [Rolipram], 0%. For `NC(=O)c1ccc([N+](=O)[O-])cc1Cl` [Aklomide], the degeneracy is 4%. Regarding `CC(C)[C@H](N)C(=O)OCC(CO)OCn1cnc2c(=O)nc(N)[nH]c21` (some centres undefined) [Valganciclovir Hydrochloride], the degeneracy came to 12.1%. With `Cc1c(O)c(=O)ccn1C` [Deferiprone], the degeneracy is 0%. `CCC(=O)O[C@]1(C(=O)CCl)[C@@H](C)C[C@H]2[C@@H]3CCC4=CC(=O)C=C[C@]4(C)[C@@]3(F)[C@@H](O)C[C@@]21C` [Clobetasol Propionate]: the degeneracy worked out at 13.2%. `CC(C)NCC(O)c1ccc2ccccc2c1` (centres undefined) [Pronetalol Hydrochloride] showed a degeneracy of 8.16%.

On to `CC(=O)O[C@]1(C(C)=O)CC[C@H]2[C@@H]3C[C@H](C)C4=CC(=O)CC[C@]4(C)[C@H]3CC[C@@]21C` [Medroxyprogesterone Acetate], for which the degeneracy worked out at 6.67%. As to `CN(C)c1nc(N(C)C)nc(N(C)C)n1` [Altretamine], the degeneracy is 2.7%. With `CCCNCC(O)COc1ccccc1C(=O)CCc1ccccc1` (centres undefined) [Propafenone] the figure was 100%; with `C[C@H]1C[C@@H]2[C@H]([C@@H](O)C[C@@]3(C)[C@H]2CC[C@]3(O)C(=O)CO)[C@@]2(C)C=CC(=O)C=C12` [Methylprednisolone], 12%; with `CC(=O)OC1CC2CCC1(C)C2(C)C` (centres undefined) [Bornyl Acetate], 100%. On to `O=c1cc[nH]c(=S)[nH]1` [2-thiouracil], for which the degeneracy is 3.7%. `CCC(=O)c1c(O)cc(O)cc1O` [Flopropione] registered a degeneracy of 0%. With `Nc1ccc(S(=O)(=O)Nc2ccnn2-c2ccccc2)cc1` [Sulfaphenazole] the figure was 0%; with `CNCC(O)c1cccc(O)c1` [L-phenylephrine], 8.57%; with `CO/N=C(\C(=O)N[C@@H]1C(=O)N2C(C(=O)O)=C(COC(N)=O)CS[C@H]12)c1ccco1` [Cefuroxime], 0%. Consider `CCCCCCCCCCCCCCCC(=O)O[C@@H]1[C@@H](O)[C@@H](O)[C@@H]([C@H](NC(=O)[C@@H]2C[C@@H](CCC)CN2C)[C@H](C)Cl)O[C@@H]1SC` [Clindamycin Palmitate Hydrochloride], for which the degeneracy amounted to 0%. With `CC(=O)Nc1ncc([N+](=O)[O-])s1` [Nithiamide] the figure was 8.33%; with `CC(C)C[C@@H]1NC(=O)[C@H](CCCN)NC(=O)[C@H](C(C)C)NC(=O)[C@H](Cc2ccc(O)cc2)N[C@@H](CCC(=O)O)C(=O)N[C@@H](CC(N)=O)C(=O)[C@@H](Cc2ccccc2)NC(=O)[C@H](Cc2ccccc2)NC(=O)[C@@H]2CCCN2C(=O)[C@@H](Cc2ccccc2)NC1=O` [Tyrothricin], 0%. `Nc1ccc2cc3ccc(N)cc3nc2c1` [Proflavine Hemisulfate] displayed a degeneracy of 100%.

`CC1(C)O[C@@H]2C[C@H]3[C@@H]4CCC5=CC(=O)C=C[C@]5(C)[C@@]4(F)[C@@H](O)C[C@]3(C)[C@]2(C(=O)CO)O1` [Triamcinolone Acetonide]: the degeneracy stood at 0%. `C[C@@H]1C[C@H]2[C@@H]3CCC4=CC(=O)C=C[C@]4(C)[C@@]3(F)[C@@H](O)C[C@]2(C)[C@@]1(O)C(=O)CO` [Dexamethasone] registered a degeneracy of 8%. With `O=C(O)COC(=O)Cc1ccccc1Nc1c(Cl)cccc1Cl` [Aceclofenac] the figure was 0%. Regarding `CCN1CCN(c2cc3c(cc2F)c(=O)c(C(=O)O)cn3C2CC2)CC1` [Enrofloxacin], the degeneracy is 0%.

Regarding `O=C1C2CC3CC1CC(O)(C3)C2` [Idramantone], the degeneracy was 7.69%. Take `C1CCN2C[C@@H]3C[C@@H](CN4CCCC[C@@H]34)[C@H]2C1` [Sparteine Sulfate]: the degeneracy was 20.7%.

The compound `C=C1/C(=C\C=C2/CCC[C@]3(C)[C@@H]([C@H](C)/C=C/[C@@H](O)C4CC4)CC[C@@H]23)C[C@@H](O)C[C@@H]1O` [Calcipotriene] gave a degeneracy of 16%. `Cc1ccc(Cl)c(Nc2ccccc2C(=O)O)c1Cl` [Meclofenamic Acid]: the degeneracy was 3.03%. With `CC1=Nc2ccc(Cl)cc2S(=O)(=O)N1` [Diazoxide] the figure was 11.8%; with `C[C@H]1C[C@H]2[C@@H]3CCC4=CC(=O)C=C[C@]4(C)[C@@]3(F)[C@@H](O)C[C@]2(C)[C@@]1(O)C(=O)CO` [betamethasone], 19.4%. `CCn1nc(C(=O)O)c(=O)c2cc3c(cc21)OCO3` [Cinoxacin] gave a degeneracy of 2.63%. Regarding `Cc1cc(/C=C/c2ccc3cc(N(C)C)ccc3[n+]2C)c(C)n1-c1ccccc1` [Pyrvinium Pamoate], the degeneracy is 100%. `COCCOC(=O)C1=C(C)NC(C)=C(C(=O)OC/C=C/c2ccccc2)C1c1cccc([N+](=O)[O-])c1` (centres undefined) [Cilnidipine] showed a degeneracy of 25%.

(Values after the supplement of paper PMC7752906.)
